Source: PMC9800739, “Epigenetic drugs in somatostatin type 2 receptor radionuclide theranostics and radiation transcriptomics in mouse pheochromocytoma models” (Theranostics, 2023)

System: MPC and MTT cells
Assay: Viability assay (colorimetric tetrazolium dye)
Format: cell-based, mouse
Conditions: both cell lines

Structure (SMILES) | hill slope of dose-response curve (viability)
Nc1ncn([C@H]2C[C@H](O)[C@@H](CO)O2)c(=O)n1 [DAC, 5-Aza-2'-deoxycytidine] | -0.4 ± 0.02
CCCC(CCC)C(=O)O [VPA, valproic acid] | -1.2 ± 0.3
